The test deals with Flag-PHB2 (pcDNA3.1-PHB2-FLAG) (UniProt Q99623). As to the kind of experiment: co-IP; pcDNA3.1-Flag-PHB2 and pcDNA3.1-HA-c-Myc cotransfected into MDA-MB-231 cells; PHB2 immunoprecipitated; immunoblotting of the Flag and HA tags; also done with cells overexpressing LacRNA (interaction said to be enhanced).

The chains behind the UniProt entries cited, without tags or fusion partners.
UniProt Q99623: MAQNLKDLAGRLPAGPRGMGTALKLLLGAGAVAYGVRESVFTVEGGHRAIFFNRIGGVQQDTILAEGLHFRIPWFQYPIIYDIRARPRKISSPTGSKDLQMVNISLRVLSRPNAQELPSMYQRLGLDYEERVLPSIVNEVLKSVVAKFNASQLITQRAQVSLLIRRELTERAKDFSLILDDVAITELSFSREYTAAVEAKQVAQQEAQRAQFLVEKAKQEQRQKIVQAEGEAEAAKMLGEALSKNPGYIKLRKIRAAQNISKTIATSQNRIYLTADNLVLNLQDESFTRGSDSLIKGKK
UniProt P01106: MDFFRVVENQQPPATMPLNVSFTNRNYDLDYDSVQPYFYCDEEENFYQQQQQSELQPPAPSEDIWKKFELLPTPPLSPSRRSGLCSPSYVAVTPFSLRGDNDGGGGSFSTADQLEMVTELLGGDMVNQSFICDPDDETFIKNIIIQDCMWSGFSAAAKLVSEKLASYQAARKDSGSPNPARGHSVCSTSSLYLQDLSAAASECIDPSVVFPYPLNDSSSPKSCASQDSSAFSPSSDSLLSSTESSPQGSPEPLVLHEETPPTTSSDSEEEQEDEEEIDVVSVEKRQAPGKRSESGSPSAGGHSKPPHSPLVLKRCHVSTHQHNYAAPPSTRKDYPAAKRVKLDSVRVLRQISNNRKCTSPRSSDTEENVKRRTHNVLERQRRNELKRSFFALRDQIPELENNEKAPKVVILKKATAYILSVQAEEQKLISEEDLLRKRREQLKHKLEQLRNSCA

Results are given in words; binding and its absence hold for the method and conditions named. In cells and extracts the contact can be indirect. Some results given as binding are weak or reduced against the parent protein; the word gives no strength.

With “HA-c-Myc (pcDNA3.1-c-Myc-HA) (from UniProt P01106 1-454)”, the binding result is listed as “binds”.

The values are drawn from article PMC9926633.
